Measurements taken from paper PMC2694148.
No constants are given. Whether binding was seen depends on the method and setting. Some binding calls cover weakened binding; strength is not graded here. Where a sequence is shown, tags or fusion partners need not be part of it.

Protein sequences, listed by entry. Tags and fused reporters are not part of them.
UniProt P50552: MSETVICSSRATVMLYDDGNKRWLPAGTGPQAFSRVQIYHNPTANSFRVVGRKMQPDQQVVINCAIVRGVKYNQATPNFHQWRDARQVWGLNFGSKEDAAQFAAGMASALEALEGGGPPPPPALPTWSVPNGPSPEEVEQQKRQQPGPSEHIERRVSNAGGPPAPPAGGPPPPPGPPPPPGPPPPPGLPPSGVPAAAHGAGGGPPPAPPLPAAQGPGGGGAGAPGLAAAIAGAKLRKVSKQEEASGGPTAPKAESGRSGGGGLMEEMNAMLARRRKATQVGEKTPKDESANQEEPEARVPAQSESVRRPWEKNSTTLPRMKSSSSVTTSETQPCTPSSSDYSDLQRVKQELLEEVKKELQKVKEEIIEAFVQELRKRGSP

Molecular target: vasodilator-stimulated phosphoprotein (VASP), yeast two-hybrid fusion (human) (UniProt P50552)
Test: two-hybrid; pairwise matings ("minimatings") of yeast strains AH109 and Y187, pGBKT7 and pGADT7 (Matchmaker Two-Hybrid System 3); growth on SD/-LTH, SD/-LTA, SD/-LTHA; quantitative β-galactosidase (lacZ) assay of diploids from SD/-LTHA; 30°C

human profilin-2a (huProfilin2a), yeast two-hybrid fusion (from UniProt P35080-1 1-140)
binding: binds

B1: mouse profilin-3 (mProfilin3), yeast two-hybrid fusion (protein, UniProt Q9DAD6 1-137)
chain: MSDWKGYISAVLRDQRIDDVAIVGHSDNRCVWASRPGGLLAAISPQEVGVLTGPDRHTFLQTGLSVAGRRCCVIRDYLLAEGDGVLDARTKGLDGRAICVGHTPRALLVLMGRRGVHGGILNKTVHDLIGGLREQCS
binding: no binding

B2: profilin-4 (PFN4), yeast two-hybrid fusion (protein, UniProt Q9D6I3 1-129)
chain: MSHLQNLLLDTLLGTKHVDSAALIKLQEKTLCVTSPGFSVMPSDVRTLLNGFAKNPLLTRREGLYFKEKDYKCVRADDYSLYAKNENTGVVVVKTNMYLVVATYTAGMYPSVCVEATEKLGEYLRKKGN
binding: no binding
